Data from doi:10.1101/2023.10.27.564116.

Experiments:
[1] = target: T1, human SART1 (squamous cell carcinoma antigen recognized by T-cells 1), endogenous (human (endogenous in HeLa)) (UniProt O43290); test: co-sedimentation
T1 sequence: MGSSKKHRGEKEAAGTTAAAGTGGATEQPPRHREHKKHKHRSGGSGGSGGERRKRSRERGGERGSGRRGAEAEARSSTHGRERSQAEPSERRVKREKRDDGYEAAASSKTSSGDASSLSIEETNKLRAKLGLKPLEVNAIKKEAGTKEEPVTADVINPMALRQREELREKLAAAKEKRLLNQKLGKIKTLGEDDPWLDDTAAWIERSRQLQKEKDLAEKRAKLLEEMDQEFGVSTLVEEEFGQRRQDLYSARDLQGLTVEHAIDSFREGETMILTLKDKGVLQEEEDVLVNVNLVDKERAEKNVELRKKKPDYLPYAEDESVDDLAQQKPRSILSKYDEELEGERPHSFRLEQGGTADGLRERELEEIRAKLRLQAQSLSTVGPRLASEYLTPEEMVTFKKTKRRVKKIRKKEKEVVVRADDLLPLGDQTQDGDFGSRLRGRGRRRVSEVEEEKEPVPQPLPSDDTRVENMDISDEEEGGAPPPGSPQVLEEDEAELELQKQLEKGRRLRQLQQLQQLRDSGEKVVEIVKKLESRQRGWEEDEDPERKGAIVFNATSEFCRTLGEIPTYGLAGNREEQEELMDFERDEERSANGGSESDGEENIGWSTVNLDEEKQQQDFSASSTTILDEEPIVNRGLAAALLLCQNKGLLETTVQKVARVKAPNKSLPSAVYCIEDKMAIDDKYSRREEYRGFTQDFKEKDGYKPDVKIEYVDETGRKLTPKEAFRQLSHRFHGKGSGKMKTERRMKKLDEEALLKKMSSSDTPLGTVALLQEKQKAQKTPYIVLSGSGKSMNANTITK

[2] = target: taxol-stabilized microtubules; test: co-sedimentation

- binding [1]: binds
Molecule: recombinant importin α/β complex

- binding [2]: binds
B1: human SART1 (squamous cell carcinoma antigen recognized by T-cells 1), endogenous (protein, UniProt O43290 1-800)
chain: T1 sequence

- binding [2]: binds
B2: human SART1 full-length, resistant to siSART1#3, FLAG-tagged (pCI-neo-hsSART1) (protein, UniProt O43290 1-800)
chain: T1 sequence

These are yes or no findings as the source states them, for the method shown. In cells and extracts the contact can be indirect. Binding calls can cover weak binding; strength is not graded here. For part of these data: Sequences can lack the tags named with a protein. Each block holds one molecule with its values, some of them ahead of it.
